Data from US9187524B2, “Broad spectrum antibiotic arylomycin analogs” (The Scripps Research Institute, priority 2010, dated 2015).
Some results were stated once for a whole list of compounds, not compound by compound. At least one compound was matched to its structure with a doubt left.

Key:
[1] = tested on: lepB(P84L) P. aeruginosa PAO1; type: cell-based, Pseudomonas aeruginosa
[2] = tested on: lepB(P84L) E. coli MG1655; type: cell-based, Escherichia coli

CCCCCCCCCCCCCCCC(=O)N(C)C(CO)C(=O)NC(C)C(=O)NCC(=O)N(C)C1C(=O)NC(CCCCC)C(=O)NC(C(=O)O)Cc2ccc(O)c(c2)-c2cc1ccc2O (centres unmarked) [Compound 30]
fold loss of activity against sensitized P. aeruginosa relative to arylomycin C16 [1]: at least 32 fold | fold loss of activity against sensitized E. coli relative to arylomycin C16 [2]: ≥ 64 fold
